Test results: the supplement of paper PMC6445147
This is a noisy data set.

B1: human tRNA-Pro; a variant is named by its letters at N, in order (parent)
chain: GGCTCGTTGGTCTAGNGGTATGATTCTCGCTTAGGGTGCGAGAGGTCCCGGGTTCNNATCCCGGACGAGCCC

Variants of: B1
Assay: tRNA 5' processing efficiency (processed reads / all reads, maximum-likelihood estimate) (fraction); higher = more efficient 5' processing
Conditions: HEK293T; construct: CMV Pol-II promoter ((+)CMV library, decapped)

Variant | tRNA 5' processing efficiency
GAT T8G T53A T54C | 0.33
ACA G9A A14G A20G T53G A58C | 0.82
GAA A14T T53G T54G | 0.33
AAA T8G G15T T19G A20T A58G T59G | 0.33
GAA G9C G38A T54G A58T | 0.33
GAA A14T G15C | 0.33
AAA A14C G17A C55A | 0.18
GAA G15T T54A C55G | 0.2
GAA G15A G45T A58T | 0.25
ATA A20G T59C | 0.2
GAA G9T T19C A20C T54G | 0.2
GAT G15C T19G | 0.2
GGA G9A A20T | 0.25
GCA G15T A58T | 0.25
GGA G17A T54A A58C | 0.25
GAA T53A T54A T59A | 0.25
CAA G9T | 0.1
GAA G18A T53C A58G | 0.25
GAT A20T C55A | 0.4
GAA A14G G18C T19G T54C | 0.25
GAA G9A A41T | 0.33
GTA G9T G15A G17A G18C T54C | 0.5
GAA G9A A14G T19A A20T C55A A58G | 0.25
GAA G17T G18A A20T T53A | 0.17

Variant | tRNA 5' processing efficiency
GAA A14G G15T G17T G52A | 0.2
GGT A58G | 0.2
TAG T8A | 0.25
AAA G17T G18T | 0.2
GAA A14G C55T | 0.33
AAA G18T A58T | 0.2
AAA T53C T54G T59C | 0.5
GAA G15A G17A A58C T59C | 0.33
GGA T8G G17C T54A A58T | 0.33
TAA T19C | 0.25
GAG G17C G18C | 0.2
GAA A14C G17C A58G | 0.6
GAA A20C T53A A58T | 0.17
GAT G9T G18C T53A T54G T59A | 0.33
GAA A14T G17T G42A | 0.33
GAA T8A T19G T53C T54A T59G | 0.25
GAA A58T G63A | 0.33
AAA G15T | 0.16
GAA G9A G15A G18A A20C T59C | 0.2
GAA T8G G18A T19G T59C | 0.2
GAA G18T A20T T59G | 0.57
GAA G15T C55A | 0.18
GAT T8G T54C | 0.17
TGA A14G G18A T19A | 0.33

Variant | tRNA 5' processing efficiency
AAA A14G G18A T54A | 0.09
GAA G18C A20G | 0.38
GAA G9C T54A C55G | 0.25
AGA A20C | 0.17
GAA G9T C55G | 0.2
CTC C55G A58T | 0.06
AAA A14T G15T C55A | 0.25
CAA T19A A20G A58G | 0.2
TTT G9C A14C G17A G18T | 0.2
GAA T19C C55A | 0.33
GAA G17A T19A A20C | 0.08
GGT T54G | 0.33
ACA G18A A20T T53A | 0.2
GAC G17A T53C | 0.33
GAC G15C G18A T19C | 0.29
CAA A14G G15A G17T T54A C55T A58G | 0.25
GAA T8G G17A C55T | 0.2
GAT T8G G15T C55G | 0.2
TAA T8C G17T T53G | 0.4
GAC A14G G15C G18T T53G T54G | 0.25
GTA T8G T19A | 0.25
GAA T19G A20T | 0.4
TTA G9A G17A T54C C55T T59A | 0.33
AGT A14G A20C | 0.33

44 successive entries already listed, quoted:
Variant | tRNA 5' processing efficiency
GGA G17A T54A A58C | 0.25
GAA T53A T54A T59A | 0.25
CAA G9T | 0.1
GAA G18A T53C A58G | 0.25
GAT A20T C55A | 0.4
GAA A14G G18C T19G T54C | 0.25
GAA G9A A41T | 0.33
GTA G9T G15A G17A G18C T54C | 0.5
GAA G9A A14G T19A A20T C55A A58G | 0.25
GAA G17T G18A A20T T53A | 0.17
GAA A14G G15T G17T G52A | 0.2
GGT A58G | 0.2
TAG T8A | 0.25
AAA G17T G18T | 0.2
GAA A14G C55T | 0.33
AAA G18T A58T | 0.2
AAA T53C T54G T59C | 0.5
GAA G15A G17A A58C T59C | 0.33
GGA T8G G17C T54A A58T | 0.33
TAA T19C | 0.25
GAG G17C G18C | 0.2
GAA A14C G17C A58G | 0.6
GAA A20C T53A A58T | 0.17
GAT G9T G18C T53A T54G T59A | 0.33
GAA A14T G17T G42A | 0.33
GAA T8A T19G T53C T54A T59G | 0.25
GAA A58T G63A | 0.33
AAA G15T | 0.16
GAA G9A G15A G18A A20C T59C | 0.2
GAA T8G G18A T19G T59C | 0.2
GAA G18T A20T T59G | 0.57
GAA G15T C55A | 0.18
GAT T8G T54C | 0.17
TGA A14G G18A T19A | 0.33
AAA A14G G18A T54A | 0.09
GAA G18C A20G | 0.38
GAA G9C T54A C55G | 0.25
AGA A20C | 0.17
GAA G9T C55G | 0.2
CTC C55G A58T | 0.06
AAA A14T G15T C55A | 0.25
CAA T19A A20G A58G | 0.2
TTT G9C A14C G17A G18T | 0.2
GAA T19C C55A | 0.33

(continued)

Variant | tRNA 5' processing efficiency
GAA G17T T19C C55T | 0.25
GAA A14T G17T | 0.67
ATA G9T A14T | 0.14
GAA T19G A20T T54A | 0.33
GAA G18C T19C A20T A58C | 0.11
AGA A14G | 0.2
GTA G9T G17C | 0.33
CAA A14C A20T A58C | 0.4
TAG G9C G18C T19A | 0.25
AAA G17T T54C | 0.25
GAT G17T T19G C55G | 0.2
GAA T8C G9A T19C C55T | 0.17
GTC G9C G17C C55T | 0.25
GAA G9C G15A G18T | 0.4
GCA T8A C55T | 0.4
GAA T8A C55T T59C | 0.09
GTA T8A G9A G15T T19A C55T | 0.33
GAA T8G G17T A20G | 0.2
TAA T8G G52A T59A | 0.2
GAA G17A A20T A58T | 0.25
TAA G9C C55A A58C | 0.23
GAA G17C T53A C55T T59C | 0.5
GCA G17C G18A C55G | 0.33
GAA T8A A20G T54C | 0.33

Variant | tRNA 5' processing efficiency
GCA G15C G18A A20G T53A | 0.25
GAA A14T G15C T19G | 0.17
GTA G9T G17C A20G | 0.84
TAA T8C G15C G17C | 0.33
GGA T19A T53A | 0.2
GAA G9T T19A C55G | 0.33
GAA A20G T53C C55G T59A | 0.14
GAC G18A T54G | 0.33
GAG G9C A14T G15T T19C A20G | 0.33
GAT T53C | 0.25
GAA T8G G29A C55T A58T | 0.25
AGA T8A G29A | 0.4
GAA A14G T54C C55T | 0.25
GAT T8C T19C | 0.25
GTA T54G A58T | 0.2
GAA G9A G15C G17C T53C | 0.33
GAA G17T T53C | 0.22
CAG C55T | 0.14
GAA T8C A20C A58C | 0.33
CTT C55G A58C | 0.57
TAC A20T T54C A58G | 0.17
GAA G17A A20G A58C T59C | 0.25
GTA G18T A58G T59G | 0.33
GAA C55G T59C | 0.25

Variant | tRNA 5' processing efficiency
GAA G17A T53G | 0.11
GTA T54A T59G | 0.2
GAA T54C C55G | 0.25
GAT G17A | 0.43
TAA G9A G15T G17A T54C | 0.25
GGA T53C | 0.29
GAA T8C T19C C55T | 0.6
GAA T8C G9C T53C T54A T59C | 0.25
AAA G9C | 0.33
GAA G17C T54A C55T A58T | 0.33
GAA A14T G18A C55T | 0.13
GAA G18T A20G T53A T59A | 0.14
GAA G15A T53A C55A | 0.33
GAA A14T T54G | 0.33
GAA G9C A14T T53A | 0.5
GAA T8G A20T T54C A58G | 0.17
GAA G9T C55T | 0.27
GAA A14T G18A T54C C55G | 0.33
GAA A20C T53G C55A | 0.17
GAA G9T G15A G18T A20T T54G | 0.33
GTA G15T T53A | 0.25
TTA G15T C55A A58T | 0.33
GAA T8C A14G G17C T53C T54C | 0.25
AAT T8G G17C T53A | 0.25

Variant | tRNA 5' processing efficiency
GAA T54G C55T | 0.25
AAA G9A C55G | 0.17
AAG T53A C55T | 0.25
CAA T19G A20T | 0.33
TAA G18A T19G T53G T59G | 0.2
AAA G9T T53A | 0.7
GAA G17A G18A C55A | 0.25
CAA T8C G15A G17T G18A A20G T54G A58C T59C | 0.4
TAA T8G T54A A58T | 0.33
CAA G15T G17A T53A | 0.17
GAA G17T A20G C55T | 0.25
GAA G18T A20G T54A | 0.25
GAT G15A G17T G18T T54C | 0.25
GTT G15A T19C T54A | 0.25
GAA T8A A14G A20C C55T | 0.5
GAC G15A G17T A20T | 0.25
GGA T8G G18T A20G T59G | 0.17
CAA A14T G18C A20G T59C | 0.25
GTA G17T A20T T53G | 0.14
GAG G15T G18C T19A | 0.4
CAA G9C T53G C55A | 0.08
GAA C55G A58C | 0.4
GAA G15C A58T T59A | 0.25
